The match of structure and compound is tentative.
Legend:
[1] = biological target: human FOLH1 (Homo sapiens (Human), UniProt Q04609); assay: SPR analysis of binding kinetics to biotinylated FOLH1 (Biacore 8K); details: ligand PSMA
[2] = biological target: Recombinant Human PSMA/FOLH1 Protein (Homo sapiens (Human), UniProt Q04609); assay: Inhibition assay (Amplex Red glutamic acid/glutamate oxidase, NAAG substrate); format: biochemical; details: Target PSMA, average of N replicates

The chains behind the UniProt entries cited, without tags or fusion partners.
UniProt Q04609, whole entry: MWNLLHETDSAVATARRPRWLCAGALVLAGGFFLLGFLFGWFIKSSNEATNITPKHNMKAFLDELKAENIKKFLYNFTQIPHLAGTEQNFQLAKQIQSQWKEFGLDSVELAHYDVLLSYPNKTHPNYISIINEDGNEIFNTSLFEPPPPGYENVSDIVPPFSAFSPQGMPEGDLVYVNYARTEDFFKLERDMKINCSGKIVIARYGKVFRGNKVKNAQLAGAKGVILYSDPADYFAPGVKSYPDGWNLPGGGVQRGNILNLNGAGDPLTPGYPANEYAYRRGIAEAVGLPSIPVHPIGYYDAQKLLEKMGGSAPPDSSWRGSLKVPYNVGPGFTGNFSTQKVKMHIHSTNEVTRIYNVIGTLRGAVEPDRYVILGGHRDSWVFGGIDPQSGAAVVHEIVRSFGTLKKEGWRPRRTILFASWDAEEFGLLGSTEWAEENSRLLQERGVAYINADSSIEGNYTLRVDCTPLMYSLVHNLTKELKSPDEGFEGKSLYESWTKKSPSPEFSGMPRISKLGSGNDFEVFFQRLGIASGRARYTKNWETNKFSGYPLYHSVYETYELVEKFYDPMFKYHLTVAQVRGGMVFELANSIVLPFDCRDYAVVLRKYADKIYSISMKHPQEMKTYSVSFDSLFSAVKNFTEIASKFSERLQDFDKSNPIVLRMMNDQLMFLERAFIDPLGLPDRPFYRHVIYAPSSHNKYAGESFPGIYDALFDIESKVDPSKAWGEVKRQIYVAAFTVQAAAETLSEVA

Structure (SMILES): CC(=O)NCCOCCOCCOCCC(=O)N[C@@H](Cc1cccc(C(=O)O)c1)C(=O)NCCCC(=O)N[C@@H](Cc1ccc2ccccc2c1)C(=O)NCCCC[C@H](NC(=O)N[C@@H](CCC(=O)O)C(=O)O)C(=O)O
- Kon ([1]; association rate): 103000 1.ms
- Koff ([1]; dissociation rate): 0.000282 s⁻¹
- Kd ([1]; kinetic 1:1 binding model): 2.75 nM
- IC50 ([2]; PSMA 5 nM, NAAG 40 μM): 7.94 nM
- Ki ([2]; calculated based on Cheng-Prusoff equation): 0.0568 nM
